This is one part of the list.
Each target was assayed with CC1=C(SC2=C1C(=N[C@H](C3=NN=C(N32)C)CC(=O)N)C4=CC=C(C=C4)Cl)C (assay: log2 fold change, soluble protein after heating vs DMSO (PISA); higher = thermal stabilisation; K562 lysate, 10 uM; active = over 0.2 and 3.5 SD of the protein, either way, in both replicates (recomputed)).
Method in brief: (§1)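 K562 pellets were dounce-homogenised in PBS pH 7.4 containing 1 mM MgCl2, and the crude extract, at 1 mg/mL protein, was exposed to 10 μM compound for 30 min. Aliquots were heated for 3 min across 48°C-58°C, pooled, brought to 0.5% NP-40 at 4°C and spun at 21,000xg for 90 min, with the supernatant taken as soluble protein. TMTpro 16plex LC-MS/MS with equalised channel sums quantified that protein. Values are log-two fold changes in thermal stability relative to solvent controls, taken from duplicates.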

The chains behind the UniProt entries cited, without tags or fusion partners. Where a name states a change or a piece, a line headed by the entry shows the natural chain unless it says otherwise.
UniProt Q9H8H3: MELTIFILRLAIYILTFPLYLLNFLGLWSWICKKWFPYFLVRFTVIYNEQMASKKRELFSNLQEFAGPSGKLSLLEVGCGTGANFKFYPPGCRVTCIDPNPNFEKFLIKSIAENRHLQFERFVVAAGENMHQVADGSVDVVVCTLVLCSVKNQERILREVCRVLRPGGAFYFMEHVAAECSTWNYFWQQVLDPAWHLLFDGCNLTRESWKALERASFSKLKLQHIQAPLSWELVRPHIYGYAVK
UniProt Q9BTT4: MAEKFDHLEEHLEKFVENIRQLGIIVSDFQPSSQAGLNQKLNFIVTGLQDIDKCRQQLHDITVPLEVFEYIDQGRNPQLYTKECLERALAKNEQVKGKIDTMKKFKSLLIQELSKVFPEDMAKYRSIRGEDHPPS
UniProt Q9BUE0: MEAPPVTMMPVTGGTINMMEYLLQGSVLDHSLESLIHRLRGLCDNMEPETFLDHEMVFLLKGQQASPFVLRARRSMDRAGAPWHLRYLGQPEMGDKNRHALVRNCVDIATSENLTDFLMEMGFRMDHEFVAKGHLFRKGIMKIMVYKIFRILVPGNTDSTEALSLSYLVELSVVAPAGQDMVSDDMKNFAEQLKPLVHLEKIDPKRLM
UniProt Q9H1U4: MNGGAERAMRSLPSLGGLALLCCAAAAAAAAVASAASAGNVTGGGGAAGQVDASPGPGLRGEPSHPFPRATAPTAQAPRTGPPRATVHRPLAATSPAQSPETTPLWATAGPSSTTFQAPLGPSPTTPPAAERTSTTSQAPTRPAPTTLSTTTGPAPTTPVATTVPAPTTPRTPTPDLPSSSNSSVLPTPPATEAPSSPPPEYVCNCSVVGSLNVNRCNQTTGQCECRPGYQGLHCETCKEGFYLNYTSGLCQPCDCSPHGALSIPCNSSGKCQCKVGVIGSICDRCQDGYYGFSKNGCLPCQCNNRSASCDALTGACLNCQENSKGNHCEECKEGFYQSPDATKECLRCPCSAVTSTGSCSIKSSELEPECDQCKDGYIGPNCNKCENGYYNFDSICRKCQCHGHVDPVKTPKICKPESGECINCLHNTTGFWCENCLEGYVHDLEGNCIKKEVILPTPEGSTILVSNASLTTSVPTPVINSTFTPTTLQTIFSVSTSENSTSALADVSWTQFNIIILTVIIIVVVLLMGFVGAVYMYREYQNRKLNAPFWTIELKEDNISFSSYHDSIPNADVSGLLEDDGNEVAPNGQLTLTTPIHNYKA
UniProt Q00987, whole entry, looked up: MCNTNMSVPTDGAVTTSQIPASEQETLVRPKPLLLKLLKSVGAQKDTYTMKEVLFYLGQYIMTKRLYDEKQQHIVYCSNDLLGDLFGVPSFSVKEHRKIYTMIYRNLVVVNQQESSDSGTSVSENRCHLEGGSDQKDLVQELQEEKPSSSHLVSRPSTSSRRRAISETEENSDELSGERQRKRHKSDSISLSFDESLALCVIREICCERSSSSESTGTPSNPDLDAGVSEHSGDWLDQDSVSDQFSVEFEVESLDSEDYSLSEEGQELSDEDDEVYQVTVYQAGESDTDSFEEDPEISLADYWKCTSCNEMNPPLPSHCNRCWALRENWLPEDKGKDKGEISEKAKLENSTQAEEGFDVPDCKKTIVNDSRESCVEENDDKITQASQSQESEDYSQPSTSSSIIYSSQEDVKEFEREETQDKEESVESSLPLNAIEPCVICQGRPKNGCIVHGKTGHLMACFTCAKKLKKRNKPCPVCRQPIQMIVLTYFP
UniProt P23368: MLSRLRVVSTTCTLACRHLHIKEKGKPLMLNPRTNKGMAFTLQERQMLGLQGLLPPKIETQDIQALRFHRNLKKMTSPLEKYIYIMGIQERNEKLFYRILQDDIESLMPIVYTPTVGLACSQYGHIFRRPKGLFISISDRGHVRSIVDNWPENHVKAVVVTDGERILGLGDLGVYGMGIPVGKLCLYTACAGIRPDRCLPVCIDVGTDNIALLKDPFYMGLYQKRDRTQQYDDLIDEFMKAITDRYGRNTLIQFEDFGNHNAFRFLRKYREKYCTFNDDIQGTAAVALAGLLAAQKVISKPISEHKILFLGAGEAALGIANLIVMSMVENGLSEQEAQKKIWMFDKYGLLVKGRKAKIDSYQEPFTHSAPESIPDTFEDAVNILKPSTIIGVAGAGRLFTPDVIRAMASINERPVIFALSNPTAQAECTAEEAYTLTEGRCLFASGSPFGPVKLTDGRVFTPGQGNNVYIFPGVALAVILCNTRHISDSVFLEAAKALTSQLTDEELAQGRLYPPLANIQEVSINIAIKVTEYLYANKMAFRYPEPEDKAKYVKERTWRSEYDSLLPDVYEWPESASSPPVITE
UniProt O43513: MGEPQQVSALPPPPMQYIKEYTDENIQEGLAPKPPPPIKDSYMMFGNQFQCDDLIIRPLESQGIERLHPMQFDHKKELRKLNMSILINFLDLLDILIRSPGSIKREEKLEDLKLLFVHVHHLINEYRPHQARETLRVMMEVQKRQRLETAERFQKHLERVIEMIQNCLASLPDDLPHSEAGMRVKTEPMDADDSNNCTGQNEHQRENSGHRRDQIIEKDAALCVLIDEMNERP
UniProt P25205: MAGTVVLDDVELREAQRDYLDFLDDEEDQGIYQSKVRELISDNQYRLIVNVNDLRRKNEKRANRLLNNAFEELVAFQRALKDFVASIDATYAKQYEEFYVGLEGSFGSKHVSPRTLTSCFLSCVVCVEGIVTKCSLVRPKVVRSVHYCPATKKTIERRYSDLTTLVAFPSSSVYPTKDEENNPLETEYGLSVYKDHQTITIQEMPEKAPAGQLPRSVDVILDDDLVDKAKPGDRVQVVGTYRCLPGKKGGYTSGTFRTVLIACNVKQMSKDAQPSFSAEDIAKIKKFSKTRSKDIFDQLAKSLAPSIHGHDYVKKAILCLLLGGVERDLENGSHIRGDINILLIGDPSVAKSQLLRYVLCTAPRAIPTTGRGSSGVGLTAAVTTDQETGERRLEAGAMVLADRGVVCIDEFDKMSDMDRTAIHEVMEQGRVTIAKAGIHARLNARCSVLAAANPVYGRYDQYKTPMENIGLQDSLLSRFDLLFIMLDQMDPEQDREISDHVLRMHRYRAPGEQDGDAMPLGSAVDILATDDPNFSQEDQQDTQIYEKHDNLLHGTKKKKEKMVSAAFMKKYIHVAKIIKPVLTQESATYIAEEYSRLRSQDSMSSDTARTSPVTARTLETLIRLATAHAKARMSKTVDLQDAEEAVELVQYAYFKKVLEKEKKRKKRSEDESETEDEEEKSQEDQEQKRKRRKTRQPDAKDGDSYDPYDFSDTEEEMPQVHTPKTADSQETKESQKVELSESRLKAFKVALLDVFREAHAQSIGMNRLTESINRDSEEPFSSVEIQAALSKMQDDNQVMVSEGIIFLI
UniProt Q9Y316: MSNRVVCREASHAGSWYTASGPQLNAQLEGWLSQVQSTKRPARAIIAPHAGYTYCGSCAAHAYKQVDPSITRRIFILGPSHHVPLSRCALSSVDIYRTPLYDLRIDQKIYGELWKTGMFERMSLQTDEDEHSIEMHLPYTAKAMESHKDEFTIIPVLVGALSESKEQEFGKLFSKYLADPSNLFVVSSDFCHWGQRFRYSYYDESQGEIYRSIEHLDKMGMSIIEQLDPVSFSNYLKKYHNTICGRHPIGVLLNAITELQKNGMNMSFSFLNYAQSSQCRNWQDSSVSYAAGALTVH
UniProt Q9BV79: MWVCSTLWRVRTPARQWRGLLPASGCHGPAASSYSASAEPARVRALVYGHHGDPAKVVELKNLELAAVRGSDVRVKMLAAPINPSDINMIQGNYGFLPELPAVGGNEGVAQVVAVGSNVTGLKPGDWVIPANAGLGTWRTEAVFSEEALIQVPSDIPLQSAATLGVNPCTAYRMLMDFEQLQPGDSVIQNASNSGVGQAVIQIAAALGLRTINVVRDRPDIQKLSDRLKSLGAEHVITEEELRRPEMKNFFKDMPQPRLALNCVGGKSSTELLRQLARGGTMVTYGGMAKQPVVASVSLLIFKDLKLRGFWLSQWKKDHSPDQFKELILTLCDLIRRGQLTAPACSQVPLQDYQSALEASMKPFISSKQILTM
UniProt Q14703: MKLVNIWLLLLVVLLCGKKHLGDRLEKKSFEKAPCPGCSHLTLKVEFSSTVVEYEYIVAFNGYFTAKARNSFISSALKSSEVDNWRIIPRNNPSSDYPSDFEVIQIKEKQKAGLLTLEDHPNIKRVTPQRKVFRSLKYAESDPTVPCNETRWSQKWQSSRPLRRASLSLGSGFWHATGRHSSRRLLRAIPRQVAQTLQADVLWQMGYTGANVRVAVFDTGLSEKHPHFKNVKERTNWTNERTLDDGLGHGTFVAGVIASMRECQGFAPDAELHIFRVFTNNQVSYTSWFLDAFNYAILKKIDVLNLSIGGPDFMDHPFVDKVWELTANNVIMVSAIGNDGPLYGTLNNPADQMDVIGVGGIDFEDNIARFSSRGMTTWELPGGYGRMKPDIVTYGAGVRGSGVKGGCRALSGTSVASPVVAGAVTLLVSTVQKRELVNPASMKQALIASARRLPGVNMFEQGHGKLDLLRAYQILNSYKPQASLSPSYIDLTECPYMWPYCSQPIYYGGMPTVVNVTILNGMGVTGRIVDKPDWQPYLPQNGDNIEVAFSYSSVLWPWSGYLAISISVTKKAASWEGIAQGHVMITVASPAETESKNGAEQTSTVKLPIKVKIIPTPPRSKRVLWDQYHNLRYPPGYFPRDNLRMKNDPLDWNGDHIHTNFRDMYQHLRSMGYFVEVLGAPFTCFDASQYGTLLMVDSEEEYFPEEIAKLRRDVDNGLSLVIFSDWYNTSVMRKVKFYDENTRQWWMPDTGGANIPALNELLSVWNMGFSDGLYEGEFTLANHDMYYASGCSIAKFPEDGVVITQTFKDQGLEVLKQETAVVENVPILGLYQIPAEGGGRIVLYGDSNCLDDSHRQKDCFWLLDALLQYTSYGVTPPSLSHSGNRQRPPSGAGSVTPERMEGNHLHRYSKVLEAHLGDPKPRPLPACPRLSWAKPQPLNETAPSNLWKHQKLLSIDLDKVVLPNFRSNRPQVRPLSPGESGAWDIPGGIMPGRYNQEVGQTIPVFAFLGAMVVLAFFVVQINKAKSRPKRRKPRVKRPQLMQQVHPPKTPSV
UniProt Q9ULK4: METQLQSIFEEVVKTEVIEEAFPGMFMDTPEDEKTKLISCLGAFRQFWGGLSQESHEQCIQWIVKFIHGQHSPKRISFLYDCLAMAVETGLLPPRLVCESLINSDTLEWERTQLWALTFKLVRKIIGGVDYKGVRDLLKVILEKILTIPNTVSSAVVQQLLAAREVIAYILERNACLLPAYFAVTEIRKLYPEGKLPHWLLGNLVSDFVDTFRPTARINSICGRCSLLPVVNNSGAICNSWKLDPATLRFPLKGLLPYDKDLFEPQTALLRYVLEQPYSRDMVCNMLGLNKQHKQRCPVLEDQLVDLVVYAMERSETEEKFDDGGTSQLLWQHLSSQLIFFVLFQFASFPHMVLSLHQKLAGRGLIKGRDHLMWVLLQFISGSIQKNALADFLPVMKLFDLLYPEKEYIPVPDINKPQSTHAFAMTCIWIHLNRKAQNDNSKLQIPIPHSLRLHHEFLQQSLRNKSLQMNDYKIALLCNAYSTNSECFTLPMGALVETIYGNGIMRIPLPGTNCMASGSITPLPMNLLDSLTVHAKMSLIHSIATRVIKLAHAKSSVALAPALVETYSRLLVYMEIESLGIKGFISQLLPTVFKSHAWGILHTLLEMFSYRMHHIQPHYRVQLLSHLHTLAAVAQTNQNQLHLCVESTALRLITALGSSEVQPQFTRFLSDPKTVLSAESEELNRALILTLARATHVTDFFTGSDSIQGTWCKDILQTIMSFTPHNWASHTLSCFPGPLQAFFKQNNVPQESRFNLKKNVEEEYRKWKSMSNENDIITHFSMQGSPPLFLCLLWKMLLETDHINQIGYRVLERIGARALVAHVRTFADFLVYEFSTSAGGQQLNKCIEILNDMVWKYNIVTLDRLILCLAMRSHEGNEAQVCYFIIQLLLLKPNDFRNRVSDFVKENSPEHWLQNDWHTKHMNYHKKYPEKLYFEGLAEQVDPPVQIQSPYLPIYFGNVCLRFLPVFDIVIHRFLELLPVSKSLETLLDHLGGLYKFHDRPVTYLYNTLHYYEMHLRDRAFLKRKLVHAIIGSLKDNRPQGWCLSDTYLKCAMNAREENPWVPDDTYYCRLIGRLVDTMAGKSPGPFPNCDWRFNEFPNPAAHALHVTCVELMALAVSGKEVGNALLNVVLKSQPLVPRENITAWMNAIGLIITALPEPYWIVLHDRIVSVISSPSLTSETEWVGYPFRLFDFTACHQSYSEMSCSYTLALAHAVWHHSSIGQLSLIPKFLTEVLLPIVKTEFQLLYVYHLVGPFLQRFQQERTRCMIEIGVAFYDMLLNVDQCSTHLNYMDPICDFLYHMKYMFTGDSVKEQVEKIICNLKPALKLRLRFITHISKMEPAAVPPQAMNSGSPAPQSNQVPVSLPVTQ
UniProt Q96PE7: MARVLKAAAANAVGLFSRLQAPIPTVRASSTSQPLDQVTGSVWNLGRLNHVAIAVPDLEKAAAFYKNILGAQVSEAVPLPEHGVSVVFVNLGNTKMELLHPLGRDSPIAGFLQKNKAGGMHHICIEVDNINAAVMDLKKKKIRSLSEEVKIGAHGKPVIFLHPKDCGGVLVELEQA

Row | Target | log2 fold change
1 | METTL7A (UniProt Q9H8H3) | inactive: -0.059
2 | MBLAC2 (UniProt Q68D91) | inactive: -0.005
3 | MED10 (UniProt Q9BTT4) | inactive: -0.033
4 | MED18 (UniProt Q9BUE0) | inactive: -0.037
5 | MEGF9 (UniProt Q9H1U4) | inactive: -0.081
6 | METTL18 (UniProt O95568) | inactive: 0.037
7 | MDC1 (UniProt Q14676) | inactive: 0.025
8 | METTL26 (UniProt Q96S19) | inactive: 0.001
9 | MELTF (UniProt P08582) | inactive: 0.013
10 | MCRS1 isoform 2 (UniProt Q96EZ8) | inactive: 0
11 | MEF2A isoform 2 (UniProt Q02078) | inactive: -0.026
12 | MED13 (UniProt Q9UHV7) | inactive: 0.02
13 | MDM2 isoform 11 (UniProt Q00987) | inactive: -0.092
14 | MBD2 (UniProt Q9UBB5) | inactive: 0.008
15 | ME2 (UniProt P23368) | inactive: 0.036
16 | MED7 (UniProt O43513) | inactive: 0.097
17 | MFSD8 (UniProt Q8NHS3) | inactive: 0.026
18 | MED30 (UniProt Q96HR3) | inactive: -0.103
19 | METTL6 (UniProt Q8TCB7) | inactive: -0.075

Row | Target | log2 fold change
20 | MCM3 isoform 2 (UniProt P25205) | inactive: -0.003
21 | MEMO1 (UniProt Q9Y316) | inactive: -0.032
22 | MED12 isoform 2 (UniProt Q93074) | inactive: -0.024
23 | METTL16 (UniProt Q86W50) | inactive: -0.005
24 | MED22 isoform 2 (UniProt Q15528) | inactive: -0.025
25 | MAU2 (UniProt Q9Y6X3) | inactive: 0.028
26 | MEPCE (UniProt Q7L2J0) | inactive: -0.01
27 | MED31 (UniProt Q9Y3C7) | inactive: 0.019
28 | MCM4 (UniProt P33991) | inactive: 0.036
29 | MED24 (UniProt O75448) | inactive: -0.027
30 | MECR (UniProt Q9BV79) | inactive: 0.013
31 | MED26 (UniProt O95402) | inactive: -0.024
32 | MBTPS1 (UniProt Q14703) | inactive: 0.141
33 | MED16 (UniProt Q9Y2X0) | inactive: 0.022
34 | MED1 (UniProt Q15648) | inactive: 0.033
35 | MED23 (UniProt Q9ULK4) | inactive: 0.011
36 | MBNL1 (UniProt C9JP00) | inactive: 0.094
37 | MCEE (UniProt Q96PE7) | inactive: -0.016
38 | MED20 (UniProt Q9H944) | inactive: -0.023

Each target was assayed with CC1=C2C(=CC=C1)N=C(N(C2=O)C3=CC=CC=C3C)CN4C=NC5=C(N=CN=C54)N in the same assay as above.
Method in brief: as §1

Row | Target | log2 fold change
39 | METTL7A (UniProt Q9H8H3) | inactive: -0.078
40 | MBLAC2 (UniProt Q68D91) | inactive: 0.001
41 | MED10 (UniProt Q9BTT4) | inactive: -0.04
42 | MED18 (UniProt Q9BUE0) | inactive: 0.001
43 | MEGF9 (UniProt Q9H1U4) | inactive: 0.018
44 | METTL18 (UniProt O95568) | inactive: 0.004
45 | MDC1 (UniProt Q14676) | inactive: 0.019
46 | METTL26 (UniProt Q96S19) | inactive: 0.062
47 | MELTF (UniProt P08582) | inactive: -0.022
48 | MCRS1 isoform 2 (UniProt Q96EZ8) | inactive: 0.008
49 | MEF2A isoform 2 (UniProt Q02078) | inactive: 0.134
50 | MED13 (UniProt Q9UHV7) | inactive: -0.041
51 | MDM2 isoform 11 (UniProt Q00987) | inactive: -0.007
52 | MBD2 (UniProt Q9UBB5) | inactive: -0.028
53 | ME2 (UniProt P23368) | inactive: 0.004
54 | MED7 (UniProt O43513) | inactive: 0.015
55 | MFSD8 (UniProt Q8NHS3) | inactive: 0.006
56 | MED30 (UniProt Q96HR3) | inactive: 0.01
57 | METTL6 (UniProt Q8TCB7) | inactive: -0.048

Row | Target | log2 fold change
58 | MCM3 isoform 2 (UniProt P25205) | inactive: -0.013
59 | MEMO1 (UniProt Q9Y316) | inactive: -0.01
60 | MED12 isoform 2 (UniProt Q93074) | inactive: -0.019
61 | METTL16 (UniProt Q86W50) | inactive: -0.002
62 | MED22 isoform 2 (UniProt Q15528) | inactive: 0.014
63 | MAU2 (UniProt Q9Y6X3) | inactive: 0.015
64 | MEPCE (UniProt Q7L2J0) | inactive: -0.037
65 | MCM4 (UniProt P33991) | inactive: 0.016
66 | MED24 (UniProt O75448) | inactive: 0.031
67 | MECR (UniProt Q9BV79) | inactive: 0.047
68 | MED26 (UniProt O95402) | inactive: 0.065
69 | MBTPS1 (UniProt Q14703) | inactive: 0.079
70 | MED16 (UniProt Q9Y2X0) | inactive: 0.029
71 | MED1 (UniProt Q15648) | inactive: 0.041
72 | MED23 (UniProt Q9ULK4) | inactive: -0.013
73 | MBNL1 (UniProt C9JP00) | inactive: -0.022
74 | MCEE (UniProt Q96PE7) | inactive: 0.037
75 | MED20 (UniProt Q9H944) | inactive: -0.055

Source: the supplement of paper PMC10849652
